PubChem BioAssay AID1259405, NCATS | 2018

Screen: 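Mouse-designed siRNAs used to find CHO productivity engineering targets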 (primary screen)
System: Chinese hamster CHO-K1 ovary cells with stable secreted eGFP expression
Reagents: single siRNA against mouse genes, 0.8 pmol siRNA per well (2 µl of 400 nM stock)
Duration: 3 days
Measured: 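Per-well intracellular GFP measured by laser scanning cytometry, plus viability from ATP luminescence, each relative to plate median of non-targeting control wells, in %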
Direction: GFP, % of control: higher = more GFP per well, higher productivity; viability (ATP), % of control: higher = more viable cells (more ATP)
Rule for the call: 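Called active when intracellular GFP, relative to negative control, is at or above 120%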
The deposit covers about 50,000 reagents; this is a random part of them. About 4,000 of them (8%) count as active. 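Mouse siRNA library applied to hamster cells; one well for each siRNA.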 Unmarked entries are inactive. Reagents against one gene are numbered here.

With knock-down of Cutc #1, the screen gave GFP, % of control 65.3; viability (ATP), % of control 74.8.
Cutc #2 scored GFP, % of control 111; viability (ATP), % of control 92.7.
Cutc #3 scored GFP, % of control 85.7; viability (ATP), % of control 80.5.
Tcf15 #1 showed GFP, % of control 98.2; viability (ATP), % of control 89.6.
Against Tcf15 #2, the entry reads GFP, % of control 80.4; viability (ATP), % of control 84.6.
Silencing of Tcf15 #3 came out at: GFP, % of control 77.8; viability (ATP), % of control 110.
Or5b109 #1 scored GFP, % of control 48.9; viability (ATP), % of control 30.8.
Against Or5b109 #2, the values are GFP, % of control 88.8; viability (ATP), % of control 104.
Against Or5b109 #3 the deposit lists GFP, % of control 62.2; viability (ATP), % of control 57.2.
After knock-down of Wnk1 #1, the screen gave GFP, % of control 74.5; viability (ATP), % of control 73.
Silencing of Wnk1 #2 resulted in: GFP, % of control 167 (active); viability (ATP), % of control 82.2.
After knock-down of Wnk1 #3, the screen gave GFP, % of control 45.2; viability (ATP), % of control 61.4.
With knock-down of Wnk1 #4 the results were GFP, % of control 91; viability (ATP), % of control 85.6.
Gdi1 #1 gave GFP, % of control 131 (active); viability (ATP), % of control 99.6.
Gdi1 #2 scored GFP, % of control 125 (active); viability (ATP), % of control 53.7.
Depletion of Gdi1 #3 resulted in: GFP, % of control 71.2; viability (ATP), % of control 106.
Silencing of Nanp #1 gave: GFP, % of control 55.8; viability (ATP), % of control 69.
After knock-down of Nanp #2, the record shows GFP, % of control 66.3; viability (ATP), % of control 71.6.
For Nanp #3, the entry reads GFP, % of control 69.6; viability (ATP), % of control 79.1.
Mrpl15 #1 showed GFP, % of control 59.7; viability (ATP), % of control 54.5.
After knock-down of Mrpl15 #2, the screen gave GFP, % of control 70.1; viability (ATP), % of control 51.
Mrpl15 #3 scored GFP, % of control 96.7; viability (ATP), % of control 87.5.
After knock-down of Nol11 #1, the screen gave GFP, % of control 65.1; viability (ATP), % of control 76.1.
Depletion of Nol11 #2 resulted in: GFP, % of control 27.7; viability (ATP), % of control 49.5.
Knock-down of Nol11 #3 came out at: GFP, % of control 113; viability (ATP), % of control 68.2.
For Ccndbp1 #1, the entry reads GFP, % of control 67.7; viability (ATP), % of control 68.1.
Against Ccndbp1 #2 the deposit lists GFP, % of control 113; viability (ATP), % of control 68.9.
Ccndbp1 #3 scored GFP, % of control 85.9; viability (ATP), % of control 115.
Silencing of Polr2m #1 resulted in: GFP, % of control 71; viability (ATP), % of control 58.1.
Knock-down of Polr2m #2 resulted in: GFP, % of control 58.9; viability (ATP), % of control 60.7.
Polr2m #3 showed GFP, % of control 45.1; viability (ATP), % of control 42.1.
Nans #1 showed GFP, % of control 100; viability (ATP), % of control 69.4.
With knock-down of Nans #2 the results were GFP, % of control 66.5; viability (ATP), % of control 63.
Nans #3 showed GFP, % of control 52.9; viability (ATP), % of control 39.2.
For Nhlh2 #1 the deposit lists GFP, % of control 77.4; viability (ATP), % of control 91.
Nhlh2 #2 showed GFP, % of control 119; viability (ATP), % of control 90.3.
Nhlh2 #3 gave GFP, % of control 79.2; viability (ATP), % of control 116.
With knock-down of Gk2 the results were GFP, % of control 72.9; viability (ATP), % of control 47.6.
After knock-down of Hddc2 #1, the record shows GFP, % of control 52; viability (ATP), % of control 78.3.
With knock-down of Hddc2 #2 the results were GFP, % of control 108; viability (ATP), % of control 82.4.
After knock-down of Hddc2 #3, the record shows GFP, % of control 70.5; viability (ATP), % of control 53.1.

Sorted by “viability (ATP), % of control” (low to high): some entries from above.
Or5b109 #1 → GFP, % of control: 48.9; viability (ATP), % of control: 30.8
Or5b109 #3 → GFP, % of control: 62.2; viability (ATP), % of control: 57.2
Wnk1 #3 → GFP, % of control: 45.2; viability (ATP), % of control: 61.4
Wnk1 #1 → GFP, % of control: 74.5; viability (ATP), % of control: 73
Wnk1 #2 → GFP, % of control: 167 (active); viability (ATP), % of control: 82.2
Or5b109 #2 → GFP, % of control: 88.8; viability (ATP), % of control: 104
